Primary screen of a compound library

Source: ChEMBL document CHEMBL3988442, “University of Dundee, Small-Polar-MMV Screening Library” (2021).

T. brucei: 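Whole-parasite assay of Trypanosoma brucei over 72 hours; the read-out is not stated. Tested at 30 µM. Higher reads as stronger inhibition (inferred: compounds with an IC50 in retests scored well above the rest). Values scatter widely below zero; nearly all retest evidence comes from the higher of the two concentrations used. Size under these conditions: about 64,000 compounds, about 940 of them at 50% or above in at least one test.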
Toxoplasma: 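Assay of Toxoplasma gondii numbers, read through their beta-galactosidase reporter with a colour substrate. Concentration: 10 µM. Higher reads as fewer parasites (inferred from which compounds were picked for retests). About 67,000 compounds were tested under these conditions; 0.38% (about 260) showed 50% or more at least once.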
Leishmania in macrophages: 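Cell assay of Leishmania donovani living inside macrophages; the read-out is not stated. Concentration: 30 µM. Higher reads as stronger inhibition (inferred: compounds with an IC50 in retests scored well above the rest). Of about 69,000 compounds tested this way, about 1,000 (1.5%) reached 50% or more in at least one test.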

Each number is a percent effect as filed.
The controls that fix the scale are not given in the record; negative values are as filed.
This is an unselected part of the compounds tested.
Two or more numbers in one place are separate tests of the same structure; such repeats can differ widely.
A dash means the value is not listed here; it may have been measured.

SMILES	T. brucei	Toxoplasma	Leishmania in macrophages
O=C(NCC1(O)CCSC1)c1ccoc1 (configuration not stated)	-18.5%	9.854%	8.484%
O=C(Nc1nncs1)NC1CCN(Cc2ccccc2)C1 (configuration not stated)	19.15%	-17.53%	7.504%
Cn1c(C(=O)N2CCC(C(N)=O)C2)c(Cl)c2ccccc21 (configuration not stated)	6.138%	-7.557%	10.04%
CC(C)(C)C(=O)N1CCCC1c1nc(O)cc(-c2ccccn2)n1 (configuration not stated)	17.13%	9.801%	-6.148%
COc1ccccc1-n1nc(CC(C)C)nc1CSc1nnc(N)s1	-13.86%	2.834%	13.73%
O=C(c1[nH]c2ccc(Cl)cc2c1Cl)N1CCC2(CC1)OCCO2	1.324%	7.968%	30.99%
O=C(NCCc1cscn1)c1coc(CN2CCOCC2)c1	-30.04%	-1.84%	-0.3435%
Cc1cn(CC(=O)N(C)Cc2cccc3ncccc23)c(=O)[nH]c1=O	-13.66%	-9.043%	-18.1%
CCn1cc(S(=O)(=O)NCC(OC)c2ccccc2)cn1 (configuration not stated)	-23.04%	-2.394%	-7.841%
CCn1ncc2c1CCCC2NCc1ccc(OC)cc1OC (configuration not stated)	-	2.158%	5.684%
Cc1nc(N2CCN(C)CC2)ncc1C(=O)N1CCCCC1	11.96%	-3.008%	22.55%
Cc1cc(C)n(CCCC(=O)N2CCc3ncc(Cl)cc3C2)n1	-66.72%	16.86%	8.357% & 2.165%
NC(=O)C1CCCN1Cc1cccc(NC(=O)c2ccc(Cl)cc2F)c1 (configuration not stated)	23.61%	7.907%	25.9%
CC(C)c1nnc(CN2CC(n3cccn3)C2)o1	-17.26%	-5.307%	-13.12%
Cn1ccnc1-c1noc(NCc2ccc(Cl)cc2)n1	-16.34%	-9.212%	-1.294%
CCOCc1ccccc1CNc1ccc2nncn2n1	-33.87%	-13%	18.04%
CCOC(=O)COc1ccc(C(C)=O)c(O)c1	-5.307%	12.08%	16.65%
CC(C(=O)N1CCN(Cc2ccncc2)CC1)n1cncn1 (configuration not stated)	-10.72%	10.55%	23.36%
Cc1c(NC(=O)c2ccc(Br)cc2)c(C(=O)N(C)C)nn1C	-10.77%	46.94%	46.69%
O=C(NC[C@H]1OC[C@@H](NC2CCC(F)(F)CC2)[C@@H]1O)C1CCCC1	-9.234%	9.002%	18.06%
CCOCCN1CCN(c2ccc(C#N)cn2)CC1	-10.33%	-8.744%	17.99%
CC(=O)Nc1ccc(C(=O)Nc2cnc3n2CCCC3)cc1C	-18.82%	-3.195%	-38.37%
CCC(c1nc(C(C)C)nn1-c1ccncc1C)n1cccn1 (configuration not stated)	-5.808%	-6.456%	5.546%
CC(c1ccc(F)cc1)N1CCN(Cc2ccc(C#N)cc2)CC1 (configuration not stated)	-10.84%	4.652%	33.78%
Cc1cc(C)nc(C2CCN(C(=O)CO)CC2)n1	-0.8583%	5.802%	9.186%
CSc1ccc(C(CC(=O)O)NC(=O)c2cc(C)on2)cc1 (configuration not stated)	6.172%	0.3277%	9%
CCn1nc(C)c2nc(C(C)C)nc(N3CCN(C)CC3)c21	-	6.842%	-84.93%
CCCn1c(O)nnc1SCC1OCCc2ccccc21 (configuration not stated)	18.31%	-2.941%	-4.268%
CN1CCC(Cc2cncc(-c3ccccc3C(=O)O)n2)C1 (configuration not stated)	2.503%	16.6%	10.83% & 15.75%
COCc1noc(-c2cc(Cl)c3c(c2)OCCCO3)n1	-39.81%	-7.442%	-32.38%
CSc1ncc(CN(C)C(C)c2cccnc2)cn1 (configuration not stated)	-11.6%	-35.34%	24.24%
Cc1cc(C2CCCN(CCCNS(C)(=O)=O)C2)n[nH]1 (configuration not stated)	-39.25%	-	-0.5546%
[H][C@@]12CCN(S(=O)(=O)c3cccnc3)C[C@]1(c1nnc(C)o1)CCO2	-81.24%	22.02%	17.24%
Cc1ccc(-c2cn[nH]c2C2CCCN(c3ccnc(C)n3)C2)cc1 (configuration not stated)	-10.47%	-15.52%	18.12%
CCOC(C)c1nc(CN2CCNCC2)cs1 (configuration not stated)	-14.6%	-2.077%	-9.396%
O=C(O)C(F)(F)F.[H][C@]12CCC[C@@]1(COCC(=O)N1CCCC1)CN(C1CCCC1)C2	-80.12%	-13.42%	19.35%
O=C(CC1CCCC1)NCCS(=O)(=O)N1CCN(c2ccccn2)CC1	9.363%	-10.13%	13.49%
CCn1nccc1CN(C)c1nc(N)nc2c1nc(C)n2C	-	15.25%	-24.36%
O=C(O)C(F)(F)F.O=C(O)C(F)(F)F.[H][C@@]12COC[C@H](C(=O)NCc3ccccn3)[C@]1([H])CN(CC1CC1)C2	-218.6%	-8.922%	9.978%
COCCCNC(=O)c1c[nH]c2ccc(OC)cc12	5.852%	-7.794%	18.87%
COc1ccc(-n2nc(C)c(C(C)=O)c2C)cc1CO	-26.51%	-20.3%	8.092%
c1ccc2c(c1)nnn2CCCNC1CCOC2(CCOCC2)C1 (configuration not stated)	8.922%	6.809%	10.89%
CN(C)CCNC(=O)c1cc2n(n1)CCN(C(=O)CC(C)(C)C)C2	-37.4%	-5.786%	-31.84%
C[C@@H]1CN(C(=O)c2cc(Cn3cnc4ccccc43)on2)C[C@H](C)O1	17.89%	1.572%	20.58%
COCC1CC2(CCN(Cc3ccncc3)CC2)CN1C(C)C.O=C(O)C(F)(F)F.O=C(O)C(F)(F)F.O=C(O)C(F)(F)F (configuration not stated)	25.51%	-2.675%	20.09%
Cc1ccc(-n2nnnc2C2(NCc3ccco3)CCCC2)cc1	-34.79%	1.125%	10.61%
CNS(=O)(=O)c1ccc(CN2CCCN(Cc3ccncc3)CC2)cc1	-5.769%	-4.043%	-15.01%
CCCc1nnc(N(C)CC2CCCN(CC)C2)o1 (configuration not stated)	-89.3%	-6.323%	-20.12%
c1ncn(CC2CCCN(Cc3noc(C4CC4)n3)C2)n1 (configuration not stated)	-10.36%	1.732%	4.451%
Cc1cc(N(C)C)nc(N2CCCC2c2cc(C)on2)n1 (configuration not stated)	-12.55%	6.581%	19.51%
OCc1cn(Cc2cccc(F)c2)nn1	-	21.17%	6.732%
CN(C)C(=O)N1CCC2(CC1)C(=O)N(CC1CCOC1)c1ccccc12 (configuration not stated)	1.224%	-6.102%	3.605%
O=C(CCc1ccc(Cl)cc1)N1CCC(O)(C(F)(F)F)C1 (configuration not stated)	16.65%	3.476%	-15.38%
CN1CC2(CCCN(Cc3cccc(CCN)c3)C2)OC1=O (configuration not stated)	-41.32%	28.86%	39.78%
CCCNC(=O)NCc1ccccc1NS(=O)(=O)c1ccccc1	-13.22%	-21.75%	6.31%
CSC1=Nc2c(cnn2-c2ccc(C)cc2)C2=NCCCN12	-	4.606%	-7.57%
Cn1ccnc1CN1CCc2ncnc(N3CCCC3)c2CC1.O=C(O)C(F)(F)F	-48.19%	-9.202%	1.783%
O=C1CCCN1CCCN1CCCCC1Cn1cncn1 (configuration not stated)	-34.74%	0.3793%	26.96%